Source: patent EP4714973A1 (Gracell Bioscience (Shanghai) Co., Ltd., dated 2026)
Substitutions are numbered along the chain they refer to. These are yes or no findings as the source states them, for the method shown. Some binding calls cover weakened binding; strength is not graded here.

T1: CLL1 antigen (human-derived CLL1 antigen protein) (human) (UniProt Q5QGZ9)
T1 sequence (looked up): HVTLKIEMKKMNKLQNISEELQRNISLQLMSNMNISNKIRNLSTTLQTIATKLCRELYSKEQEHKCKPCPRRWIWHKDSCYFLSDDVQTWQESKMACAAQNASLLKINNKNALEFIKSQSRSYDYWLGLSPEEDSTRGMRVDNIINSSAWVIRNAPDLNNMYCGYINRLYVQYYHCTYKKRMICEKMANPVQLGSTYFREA

B1: C1 anti-CLL1 single-domain antibody (VHH)
VHH: QVQLVESGGGLVQPGGSLRLSCAASGFTFSSKTMGWARQVPGKAIEWLSGIYSDGSTYYADSVKGRFTISRDNAKNMVYLQMNSLKPEDTAVYYCATEDLTSYGRGTQVTVSS
B2: C10 anti-CLL1 single-domain antibody (VHH)
VHH: QVQLVESGGGLVQPGGSLRLACAASGFTFSSYAMGWARQVPGKDVEWVSGIYSDGSTYYADSVKGRFTISRDNAKNTVYLQMNSLKPEDTAVYYCATDPTLENQTTAWGQGTQVTVSS
B3: C2 anti-CLL1 single-domain antibody (VHH)
VHH: QVQLVESGGGLVQPGGSLRLSCAASGFTFSSYAMGWARQVPGKEVEWVSGIYSDGSTYYANSVKGRFTISRDNAKNTMYLQMNSLKPEDTAVYHCATDPTVHSDLPVWGQGTLVTVSS
B4: C3 anti-CLL1 single-domain antibody (VHH)
VHH: QVQLVESGGGLVQPGGSLRLSCAASGFTFSSYAMGWARQVPGKEVEWVSGIYSDGRTYYADSVKGRFTISRDNAKNEVYLQMNSLKPEDTAVYYCAPEPGQGVGDYWGQGTQVTVSS
B5: C4 anti-CLL1 single-domain antibody (VHH)
VHH: B3 VHH with E44D, Y58N, N61D, M78V, K86R
B6: C5 anti-CLL1 single-domain antibody (VHH)
VHH: QVQLVESGGGLVQPGGSLRLSCAASGFTFSSYDMGWARQVPGKAVEWVSGIYSDGSTYYADSVKGRFTISRDNAKNTVYLQMNSLKPEDTAVYYCATDPLTSELRSWGQGTQVTVSS
B7: C6 anti-CLL1 single-domain antibody (VHH)
VHH: B3 VHH with A23T, Y58N, N61D, M78V, K86R
B8: C7 anti-CLL1 single-domain antibody (VHH)
VHH: B3 VHH with Y58N, N61D, M78V, K86R
B9: C8 anti-CLL1 single-domain antibody (VHH)
VHH: B3 VHH with Y58N, N61D, M78V, K86R, L113Q
B10: C9 anti-CLL1 single-domain antibody (VHH)
VHH: B2 VHH with A21S, D72Y

Biological target: T1, CLL1 antigen (human-derived CLL1 antigen protein) (human)
Experiment: phage display panning on coated CLL1 antigen and phage ELISA

| Binder | binding |
| --- | --- |
| B1 | binds |
| B2 | binds |
| B3 | binds |
| B4 | binds |
| B5 | binds |
| B6 | binds |
| B7 | binds |
| B8 | binds |
| B9 | binds |
| B10 | binds |
